# PubChem BioAssay AID1671195, Yale University, 2021
# Assay: 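Genes whose knockdown alters LDL uptake in liver cancer cells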 (primary screen)
# System: human Huh7 hepatoma cells
# Reagent: siRNA pool against human genes, 18 nM
# Duration: about 2 to 2.5 days of knockdown, then 8 h LDL uptake
# Challenge: DiI-labelled LDL at 30 µg/ml for 8 h, in lipoprotein-deficient serum medium
# Measured: 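Per-cell DiI-LDL intensity by automated imaging; well means scaled to the plate median and given as a robust z-score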
# Scale: robust z-score: higher = more LDL uptake after knockdown
# Call rule: 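Active when two or more replicates show a robust z-score above 2 or below -2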
# This is a random part of about 22,000 reagents tested. About 1,510 of all reagents (6.9%) count as active. 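Active includes knockdowns raising or lowering LDL uptake; positive z-scores mean more uptake, negative mean less.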 The numbers tell different reagents against one gene apart.
The opening 8 entries, to show the layout:
target gene,reagent no.,"robust z-score, replicate 1","robust z-score, replicate 2","robust z-score, replicate 3",Call
IRF2BP1 (interferon regulatory factor 2 binding protein 1),1,2.19,0.96,0.202,inactive
SLC15A3,1,0.636,0.428,0.807,inactive
OR52N4 (olfactory receptor family 52 subfamily N member 4),1,-0.498,-0.945,-0.367,inactive
SMARCAD1 (SNF2 related chromatin remodeling ATPase with DExD box 1),1,0.264,-0.766,-0.514,inactive
LOC400681 (retired record),1,0.999,0.138,0.274,inactive
KCNJ5-AS1 (KCNJ5 antisense RNA 1),1,-0.941,-0.976,-0.756,inactive
IGFALS,1,-1.62,-1.32,-1.63,inactive
TUBB6 (tubulin beta 6 class V),1,0.0857,-0.339,-0.133,inactive

Main list, from the start:
target gene,reagent no.,"robust z-score, replicate 1","robust z-score, replicate 2","robust z-score, replicate 3",Call
IRF2BP1 (interferon regulatory factor 2 binding protein 1),1,2.19,0.96,0.202,inactive
SLC15A3,1,0.636,0.428,0.807,inactive
OR52N4 (olfactory receptor family 52 subfamily N member 4),1,-0.498,-0.945,-0.367,inactive
SMARCAD1 (SNF2 related chromatin remodeling ATPase with DExD box 1),1,0.264,-0.766,-0.514,inactive
LOC400681 (retired record),1,0.999,0.138,0.274,inactive
KCNJ5-AS1 (KCNJ5 antisense RNA 1),1,-0.941,-0.976,-0.756,inactive
IGFALS,1,-1.62,-1.32,-1.63,inactive
TUBB6 (tubulin beta 6 class V),1,0.0857,-0.339,-0.133,inactive
LOC391767 (retired record),1,3.77,2.61,3.23,active
ZNF845 (zinc finger protein 845),1,0.733,1.79,1.11,inactive
MBOAT1 (membrane bound glycerophospholipid O-acyltransferase 1),1,0.948,1.32,0.865,inactive
"RAB27B (RAB27B, member RAS oncogene family)",1,-0.218,-0.621,-0.765,inactive
GPRC5B (G protein-coupled receptor class C group 5 member B),1,0.0548,-0.566,0.0203,inactive
PRECSIT,1,0.03,-0.182,0.251,inactive
TAS2R41 (taste 2 receptor member 41),1,-0.555,-0.7,-0.82,inactive
PPIAP58 (peptidylprolyl isomerase A pseudogene 58),1,-0.232,-0.919,-1.22,inactive
JRK (Jrk helix-turn-helix protein),1,1.8,1.65,1.61,inactive
NEU1 (neuraminidase 1),1,1.04,0.677,1.32,inactive
CD320 (CD320 molecule),1,-0.136,-0.116,0.122,inactive
CFAP77 (cilia and flagella associated protein 77),1,0.103,0.597,-0.217,inactive
UFM1 (ubiquitin fold modifier 1),1,-1.59,-1.71,-0.994,inactive
RFX4 (regulatory factor X4),1,0.0901,0.0612,0.244,inactive
MTX2 (metaxin 2),1,-0.374,-1.29,-0.15,inactive
FBXO25 (F-box protein 25),1,4.78,-0.0353,1.01,inactive
DISP2 (dispatched RND transporter family member 2),1,-0.755,-1.23,-0.965,inactive
VPS37C (VPS37C subunit of ESCRT-I),1,-1.08,-2.16,-0.261,inactive
LOC440368 (retired record),1,-0.2,0.151,-0.155,inactive
FBXO6 (F-box protein 6),1,1.8,0.985,1.34,inactive
TMEM107 (transmembrane protein 107),1,-0.485,-0.507,0.197,inactive
TRIM28 (tripartite motif containing 28),1,-0.71,-1.08,-0.902,inactive
PIK3CB,1,-1.84,-1.86,-1.95,inactive
MAGEB6 (MAGE family member B6),1,1.07,1.37,1.73,inactive
LRRC45 (leucine rich repeat containing 45),1,0.516,0.429,-0.726,inactive
LOC401410 (retired record),1,-0.559,-0.548,-0.699,inactive
CDH24 (cadherin 24),1,1.67,1.21,1.22,inactive
NAV1 (neuron navigator 1),1,1.89,1.81,2.16,inactive
OR5AS1 (olfactory receptor family 5 subfamily AS member 1),1,0.965,0.591,0.772,inactive
EIF3K (eukaryotic translation initiation factor 3 subunit K),1,2.13,-0.138,1.26,inactive
RIDA (reactive intermediate imine deaminase A),1,-0.528,-1.52,-0.877,inactive
RPL18 (ribosomal protein L18),1,-0.995,-1.64,-0.849,inactive
LOC441824 (retired record),1,-1.49,-1.23,-1.27,inactive
BUD23 (BUD23 rRNA methyltransferase and ribosome maturation factor),1,-0.128,0.192,0.704,inactive
IREB2 (iron responsive element binding protein 2),1,-0.333,0.718,0.251,inactive
HINT3 (histidine triad nucleotide binding protein 3),1,-2.13,-0.411,-0.502,inactive
PRRC2B (proline rich coiled-coil 2B),1,1.68,2.22,1.88,inactive
SPATA12 (spermatogenesis associated 12),1,-1.89,-1.43,-1.07,inactive
"NT5C2 (5'-nucleotidase, cytosolic II)",1,0.747,0.723,1.66,inactive
PPFIA4 (PPFI scaffold protein A4),1,-0.203,-0.64,-0.756,inactive
GIT2 (GIT ArfGAP 2),1,-1.48,-2.14,-1.48,inactive
NANS (N-acetylneuraminate synthase),1,-0.594,-3.3,0.0465,inactive
UQCRH (ubiquinol-cytochrome c reductase hinge protein),1,0.371,0.503,1.22,inactive
KAT8 (lysine acetyltransferase 8),1,1.9,2.43,0.512,active
FAM53B (family with sequence similarity 53 member B),1,0.949,-0.957,-0.073,inactive
INHBC (inhibin subunit beta C),1,0.172,-0.87,-0.0418,inactive
THNSL1 (threonine synthase like 1),1,-0.967,-0.719,-0.82,inactive
SLC6A17,1,0.441,0.349,0.0738,inactive
VDAC2 (voltage dependent anion channel 2),1,3.32,3.46,1.45,active
PRPF40A (pre-mRNA processing factor 40A),1,-1.26,-1.11,-1.26,inactive
MOGAT3 (monoacylglycerol O-acyltransferase 3),1,-2.2,-0.316,0.185,inactive
PCNP (PEST proteolytic signal containing nuclear protein),1,0.687,1.82,1.48,inactive
LTBP1 (latent transforming growth factor beta binding protein 1),1,1.38,0.575,-0.312,inactive
LOC442154 (retired record),1,-0.679,-0.868,-0.946,inactive
SLC25A48,1,0.919,0.00428,1.12,inactive
MRPS24 (mitochondrial ribosomal protein S24),1,-1.48,-1.86,-1.72,inactive
LZTR1 (leucine zipper like post translational regulator 1),1,-0.386,0.173,-0.00123,inactive
"ACAP2 (ArfGAP with coiled-coil, ankyrin repeat and PH domains 2)",1,0.126,-1.06,-0.937,inactive
SRPX (sushi repeat containing protein X-linked),1,-1.09,-1.09,-2.18,inactive
SLF1 (SMC5/6 complex localization factor 1),1,3.28,1.74,1.59,inactive
SLF1 (SMC5/6 complex localization factor 1),2,-0.587,-0.585,-0.559,inactive
IGSF5 (immunoglobulin superfamily member 5),1,0.653,0.383,0.121,inactive
GPR82 (G protein-coupled receptor 82),1,0.495,-1,-0.0115,inactive
CORO7 (coronin 7),1,0.82,0.0326,1.4,inactive
HNRNPR (heterogeneous nuclear ribonucleoprotein R),1,-0.069,-0.0798,0.314,inactive
REG3G (regenerating family member 3 gamma),1,-0.279,-1.45,-0.898,inactive
POU2F2 (POU class 2 homeobox 2),1,-0.246,-0.534,0.138,inactive
CCR3 (C-C motif chemokine receptor 3),1,-1.12,-1.41,-1.74,inactive
"GIMAP8 (GTPase, IMAP family member 8)",1,-0.182,0.867,0.000544,inactive
RBL1 (RB transcriptional corepressor like 1),1,0.282,0.975,-0.326,inactive
MGAT4A,1,-0.0466,-0.23,-0.402,inactive
TIMM10 (translocase of inner mitochondrial membrane 10),1,-0.773,-0.258,-0.527,inactive
SRP9 (signal recognition particle 9),1,-0.352,-1.11,0.511,inactive
LOC440030 (retired record),1,-1.14,-1.24,-1.6,inactive
POLR2B (RNA polymerase II subunit B),1,-1.09,-0.857,-0.974,inactive
UBE2Q2 (ubiquitin conjugating enzyme E2 Q2),1,0.041,1.81,1.58,inactive
LOC440848 (retired record),1,-0.143,-0.278,-0.301,inactive
GPAT3 (glycerol-3-phosphate acyltransferase 3),1,0.562,2.5,0.835,inactive
CAMK1 (calcium/calmodulin dependent protein kinase I),1,1.7,0.478,1.09,inactive
